Assay results taken from the supplement of paper PMC6411743.
± gives the standard deviation of the averaged measurements. This is one part of the list.

Chains of the proteins cited; added tags and fusions are not shown. Lines headed by an entry give the natural chain unless they say otherwise; changes in a name come on top.
UniProt P84095: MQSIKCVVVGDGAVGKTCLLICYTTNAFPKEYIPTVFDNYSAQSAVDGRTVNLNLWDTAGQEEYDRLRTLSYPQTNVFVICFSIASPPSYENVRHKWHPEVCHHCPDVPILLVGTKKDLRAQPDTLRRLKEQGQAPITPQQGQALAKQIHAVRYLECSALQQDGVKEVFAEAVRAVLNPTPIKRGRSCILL
UniProt P78318: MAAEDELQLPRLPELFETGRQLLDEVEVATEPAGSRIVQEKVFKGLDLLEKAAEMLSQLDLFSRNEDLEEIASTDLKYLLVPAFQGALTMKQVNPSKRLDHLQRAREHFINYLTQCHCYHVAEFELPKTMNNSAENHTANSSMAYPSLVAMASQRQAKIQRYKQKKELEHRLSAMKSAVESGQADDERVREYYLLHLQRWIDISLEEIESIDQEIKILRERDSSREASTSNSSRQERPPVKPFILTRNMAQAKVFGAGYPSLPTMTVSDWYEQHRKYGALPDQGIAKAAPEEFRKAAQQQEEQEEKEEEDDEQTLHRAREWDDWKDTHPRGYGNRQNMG
UniProt P50552: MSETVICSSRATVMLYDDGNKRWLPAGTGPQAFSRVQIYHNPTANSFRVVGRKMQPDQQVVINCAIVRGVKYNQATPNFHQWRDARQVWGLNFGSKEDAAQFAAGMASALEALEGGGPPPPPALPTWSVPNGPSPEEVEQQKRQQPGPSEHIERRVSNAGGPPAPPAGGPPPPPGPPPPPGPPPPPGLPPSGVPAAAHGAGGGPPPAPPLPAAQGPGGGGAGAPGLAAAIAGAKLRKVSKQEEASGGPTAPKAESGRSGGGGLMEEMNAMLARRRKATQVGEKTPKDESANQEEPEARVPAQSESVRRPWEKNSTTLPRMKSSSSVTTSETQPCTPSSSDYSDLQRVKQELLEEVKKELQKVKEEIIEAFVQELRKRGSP
UniProt P62820, whole entry: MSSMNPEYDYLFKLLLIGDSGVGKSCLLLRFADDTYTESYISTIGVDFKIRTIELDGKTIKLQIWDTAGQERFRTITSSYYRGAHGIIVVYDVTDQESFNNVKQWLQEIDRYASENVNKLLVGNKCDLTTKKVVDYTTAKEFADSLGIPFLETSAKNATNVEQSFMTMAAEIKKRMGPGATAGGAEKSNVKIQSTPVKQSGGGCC
UniProt P51798: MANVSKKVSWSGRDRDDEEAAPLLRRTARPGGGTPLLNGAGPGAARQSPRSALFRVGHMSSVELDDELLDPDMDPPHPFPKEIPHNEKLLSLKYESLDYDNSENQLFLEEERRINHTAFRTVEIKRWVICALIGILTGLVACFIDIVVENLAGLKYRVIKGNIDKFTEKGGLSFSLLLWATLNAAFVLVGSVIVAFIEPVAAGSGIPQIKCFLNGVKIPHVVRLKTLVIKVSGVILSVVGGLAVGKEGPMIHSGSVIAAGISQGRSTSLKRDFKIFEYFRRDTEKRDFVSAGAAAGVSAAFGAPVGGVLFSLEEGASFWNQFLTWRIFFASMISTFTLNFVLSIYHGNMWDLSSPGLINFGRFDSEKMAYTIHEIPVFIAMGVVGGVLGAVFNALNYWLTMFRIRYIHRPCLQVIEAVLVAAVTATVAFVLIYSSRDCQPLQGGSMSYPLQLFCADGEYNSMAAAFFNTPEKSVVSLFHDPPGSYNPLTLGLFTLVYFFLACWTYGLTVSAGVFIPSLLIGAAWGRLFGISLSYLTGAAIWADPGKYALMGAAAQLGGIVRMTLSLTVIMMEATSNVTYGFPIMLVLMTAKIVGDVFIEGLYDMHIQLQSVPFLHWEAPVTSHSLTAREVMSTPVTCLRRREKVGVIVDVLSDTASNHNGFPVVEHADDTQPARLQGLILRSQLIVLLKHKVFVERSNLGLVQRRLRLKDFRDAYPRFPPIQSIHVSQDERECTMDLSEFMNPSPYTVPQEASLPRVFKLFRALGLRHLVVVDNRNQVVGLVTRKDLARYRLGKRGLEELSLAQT
UniProt P56134: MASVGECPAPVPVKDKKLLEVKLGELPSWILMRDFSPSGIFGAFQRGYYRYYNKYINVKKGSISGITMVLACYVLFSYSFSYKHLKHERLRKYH
UniProt P51570: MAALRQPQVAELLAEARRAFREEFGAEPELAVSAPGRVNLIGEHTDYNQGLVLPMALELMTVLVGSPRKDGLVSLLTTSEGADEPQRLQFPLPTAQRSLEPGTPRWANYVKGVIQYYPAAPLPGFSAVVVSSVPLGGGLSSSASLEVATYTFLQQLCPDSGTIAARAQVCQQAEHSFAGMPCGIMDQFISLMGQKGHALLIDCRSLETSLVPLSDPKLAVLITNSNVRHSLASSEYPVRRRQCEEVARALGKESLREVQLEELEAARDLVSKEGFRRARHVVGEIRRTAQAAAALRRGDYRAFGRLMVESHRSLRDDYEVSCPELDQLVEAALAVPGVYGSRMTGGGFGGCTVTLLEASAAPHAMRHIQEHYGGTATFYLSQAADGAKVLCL
UniProt P52758: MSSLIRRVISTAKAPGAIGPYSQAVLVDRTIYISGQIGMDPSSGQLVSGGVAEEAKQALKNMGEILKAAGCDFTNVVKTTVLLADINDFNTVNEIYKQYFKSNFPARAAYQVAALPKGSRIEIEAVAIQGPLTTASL
UniProt P53384: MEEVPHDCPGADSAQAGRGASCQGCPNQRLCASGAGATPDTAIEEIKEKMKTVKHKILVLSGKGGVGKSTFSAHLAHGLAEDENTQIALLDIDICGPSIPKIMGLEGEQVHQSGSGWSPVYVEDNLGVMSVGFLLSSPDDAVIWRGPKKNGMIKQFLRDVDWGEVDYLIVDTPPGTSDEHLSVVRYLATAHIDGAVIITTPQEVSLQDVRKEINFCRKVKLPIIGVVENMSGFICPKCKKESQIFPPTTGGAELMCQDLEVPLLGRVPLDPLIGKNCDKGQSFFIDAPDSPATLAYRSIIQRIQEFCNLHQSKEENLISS
UniProt P51809, whole entry: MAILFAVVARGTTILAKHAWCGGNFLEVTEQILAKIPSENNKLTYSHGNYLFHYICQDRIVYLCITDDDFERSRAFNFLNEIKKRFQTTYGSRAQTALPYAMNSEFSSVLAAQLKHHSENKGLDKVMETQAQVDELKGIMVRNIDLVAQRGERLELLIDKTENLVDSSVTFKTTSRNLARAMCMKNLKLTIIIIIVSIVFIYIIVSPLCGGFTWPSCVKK
UniProt P55884, whole entry: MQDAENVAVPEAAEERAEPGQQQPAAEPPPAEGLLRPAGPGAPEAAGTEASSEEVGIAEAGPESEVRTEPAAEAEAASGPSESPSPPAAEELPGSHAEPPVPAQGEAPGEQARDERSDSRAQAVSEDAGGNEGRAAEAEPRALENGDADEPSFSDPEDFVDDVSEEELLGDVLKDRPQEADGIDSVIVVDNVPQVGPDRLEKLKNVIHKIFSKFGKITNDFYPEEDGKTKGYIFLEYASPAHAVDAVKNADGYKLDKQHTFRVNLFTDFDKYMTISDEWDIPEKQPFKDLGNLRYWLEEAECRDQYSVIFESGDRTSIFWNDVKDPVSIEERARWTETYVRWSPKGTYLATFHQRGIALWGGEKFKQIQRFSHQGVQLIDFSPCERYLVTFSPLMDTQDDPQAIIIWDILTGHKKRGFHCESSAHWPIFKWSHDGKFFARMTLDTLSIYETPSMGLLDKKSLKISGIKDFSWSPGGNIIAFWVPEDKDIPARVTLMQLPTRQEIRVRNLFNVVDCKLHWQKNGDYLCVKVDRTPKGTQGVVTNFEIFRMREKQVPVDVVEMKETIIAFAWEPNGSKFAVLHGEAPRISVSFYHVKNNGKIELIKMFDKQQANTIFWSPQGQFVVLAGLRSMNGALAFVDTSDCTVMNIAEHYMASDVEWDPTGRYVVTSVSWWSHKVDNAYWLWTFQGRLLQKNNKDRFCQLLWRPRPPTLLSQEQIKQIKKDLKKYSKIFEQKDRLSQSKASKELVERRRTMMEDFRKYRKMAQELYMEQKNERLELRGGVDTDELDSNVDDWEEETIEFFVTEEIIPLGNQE
UniProt P63151: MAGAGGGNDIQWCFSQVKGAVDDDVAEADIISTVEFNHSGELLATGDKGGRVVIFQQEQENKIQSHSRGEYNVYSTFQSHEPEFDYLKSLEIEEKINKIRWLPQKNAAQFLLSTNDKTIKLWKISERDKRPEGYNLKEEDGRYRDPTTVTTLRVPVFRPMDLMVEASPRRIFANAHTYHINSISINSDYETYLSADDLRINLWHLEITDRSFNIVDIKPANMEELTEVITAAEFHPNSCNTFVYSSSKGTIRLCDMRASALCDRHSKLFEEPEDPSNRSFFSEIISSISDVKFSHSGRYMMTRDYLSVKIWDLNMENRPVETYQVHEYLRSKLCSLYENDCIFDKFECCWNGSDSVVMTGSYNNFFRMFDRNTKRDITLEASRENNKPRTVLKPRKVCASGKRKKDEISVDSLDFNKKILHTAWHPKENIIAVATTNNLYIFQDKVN

Compound: Nc1nc2c(ncn2[C@@H]2O[C@H](COP(=O)(O)OP(=O)(O)OP(=O)(O)O)[C@@H](O)[C@H]2O)c(=O)[nH]1 [guanosine triphosphate]
Assay: NP40-soluble protein abundance relative to vehicle (solubility fold change) (ratio); higher = more soluble protein in presence of GTP
How it was run: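 Data come from three independent experiments in which Dounce-homogenised Jurkat crude lysate was treated at eight concentrations from 0.1 to 10 mM. Treatment ran 10 min at room temperature and then 3 min at 37 °C, after which 0.8% NP40 and benzonase were added for 60 min at 4 °C before ultracentrifugation. The supernatant underwent TMT labelling and LC-MS/MS, and vsn-normalised intensities were expressed as fold change against the detergent-processed vehicle in each replicate.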

Target | NP40-soluble protein abundance (concentration: 0.1mM) | NP40-soluble protein abundance (concentration: 0.5mM) | NP40-soluble protein abundance (concentration: 1mM) | NP40-soluble protein abundance (concentration: 2mM) | NP40-soluble protein abundance (concentration: 4mM) | NP40-soluble protein abundance (concentration: 6mM) | NP40-soluble protein abundance (concentration: 8mM) | NP40-soluble protein abundance (concentration: 10mM)
UniProt P84095 | 0.968 ± 0.043 | 0.992 ± 0.054 | 0.902 ± 0.062 | 0.887 ± 0.065 | 0.851 ± 0.081 | 0.888 ± 0.077 | 0.865 ± 0.069 | 0.844 ± 0.092
IGBP1 (UniProt P78318) | 0.923 ± 0.058 | 0.856 ± 0.039 | 1.05 ± 0.16 | 1.03 ± 0.07 | 1.01 ± 0.11 | 1.01 ± 0.074 | 0.989 ± 0.16 | 1.09 ± 0.19
VASP (UniProt P50552) | 0.924 ± 0.095 | 0.918 ± 0.1 | 0.957 ± 0.12 | 0.907 ± 0.14 | 0.897 ± 0.12 | 0.896 ± 0.12 | 0.908 ± 0.082 | 0.932 ± 0.098
UniProt P62820 | 0.925 ± 0.052 | 0.941 ± 0.016 | 0.94 ± 0.058 | 0.881 ± 0.091 | 0.855 ± 0.11 | 0.895 ± 0.1 | 0.903 ± 0.06 | 0.879 ± 0.078
UniProt P51798 and related entries | 1.05 ± 0.039 | 1.02 ± 0.036 | 1.02 ± 0.036 | 0.988 ± 0.05 | 0.952 ± 0.068 | 1.02 ± 0.042 | 0.992 ± 0.071 | 0.925 ± 0.03
UniProt P56134 and related entries | 1.04 ± 0.12 | 0.968 ± 0.037 | 1.08 ± 0.17 | 0.906 ± 0.037 | 1.01 ± 0.18 | 0.984 ± 0.027 | 1.05 ± 0.11 | 0.934 ± 0.022
GALK1 (UniProt P51570) | 1.007 ± 0.0096 | 1.02 ± 0.02 | 0.993 ± 0.019 | 0.957 ± 0.044 | 0.961 ± 0.021 | 0.977 ± 0.031 | 0.942 ± 0.053 | 0.922 ± 0.042
UniProt P62081 | 0.964 ± 0.091 | 1.04 ± 0.056 | 1.11 ± 0.13 | 1.07 ± 0.15 | 1.09 ± 0.22 | 1.05 ± 0.18 | 1.02 ± 0.22 | 1.03 ± 0.18
UniProt P52758 | 0.945 ± 0.088 | 0.875 ± 0.047 | 0.935 ± 0.062 | 0.919 ± 0.01 | 0.943 ± 0.044 | 0.89432 ± 0.00075 | 0.941 ± 0.032 | 0.904 ± 0.033
UniProt P62753 | 0.956 ± 0.058 | 1.01 ± 0.097 | 1.05 ± 0.18 | 0.982 ± 0.2 | 0.888 ± 0.28 | 0.835 ± 0.25 | 0.746 ± 0.23 | 0.816 ± 0.28
UniProt P53384 and related entries | 0.935 ± 0.081 | 0.92 ± 0.081 | 0.864 ± 0.032 | 0.881 ± 0.052 | 0.842 ± 0.064 | 0.877 ± 0.065 | 0.856 ± 0.05 | 0.864 ± 0.074
UniProt P51809 and related entries | 0.982 ± 0.021 | 0.933 ± 0.039 | 0.817 ± 0.015 | 0.868 ± 0.061 | 0.878 ± 0.042 | 0.811 ± 0.052 | 0.778 ± 0.1 | 0.807 ± 0.09
UniProt P78563 and related entries | 1.05 ± 0.12 | 1.03 ± 0.13 | 1.007 ± 0.0033 | 1.07 ± 0.053 | 1.11 ± 0.044 | 1.16 ± 0.062 | 1.15 ± 0.031 | 1.16 ± 0.1
UniProt P55884 and related entries | 1.02 ± 0.042 | 1.07 ± 0.056 | 1.03 ± 0.068 | 1.14 ± 0.18 | 1.29 ± 0.26 | 1.46 ± 0.33 | 1.55 ± 0.34 | 1.75 ± 0.36
UniProt P63151 and related entries | 0.983 ± 0.037 | 1.02 ± 0.071 | 0.934 ± 0.068 | 0.931 ± 0.083 | 0.955 ± 0.079 | 0.887 ± 0.071 | 0.92 ± 0.016 | 0.8766 ± 0.0055

Complete entries from above. Values in the order: NP40-soluble protein abundance (concentration: 0.1mM)	NP40-soluble protein abundance (concentration: 0.5mM)	NP40-soluble protein abundance (concentration: 1mM)	NP40-soluble protein abundance (concentration: 2mM)	NP40-soluble protein abundance (concentration: 4mM)	NP40-soluble protein abundance (concentration: 6mM)	NP40-soluble protein abundance (concentration: 8mM)	NP40-soluble protein abundance (concentration: 10mM)
VASP (UniProt P50552) reads 0.924 ± 0.095	0.918 ± 0.1	0.957 ± 0.12	0.907 ± 0.14	0.897 ± 0.12	0.896 ± 0.12	0.908 ± 0.082	0.932 ± 0.098
UniProt P78563 and related entries reads 1.05 ± 0.12	1.03 ± 0.13	1.007 ± 0.0033	1.07 ± 0.053	1.11 ± 0.044	1.16 ± 0.062	1.15 ± 0.031	1.16 ± 0.1
